Results deposited as PubChem BioAssay AID1259299 (Sanger Institute, 2017)
The whole screen tested 794 reagents; below is a part drawn at random. In the full data, 9 (1.1%) are marked active. 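Calls rest on knock-down alone; synergy scores play no part in calls, and no gene passed the synergy cut.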 Unmarked entries are inactive. No viability above 1 is reported: the scale is capped. Not given: the amount of reagent, the time to read-out.

Assay: 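Essential genes and drug-synergistic partners among kinases and colorectal mutation genes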 (primary screen)
Cell system: human CAR1 colorectal cancer cells
Reagents: siRNA pool against human genes
Challenge: anchor drug BYL719 1 µM, cetuximab 5 µg/ml or trametinib 10 nM, or DMSO vehicle alone; exposure length not given
Read-out: 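Cell viability as fraction of non-targeting siRNA wells, mean of replicates, with robust z-score and a synergy score for each of three drugs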
Direction: viability robust z-score, knock-down alone and viability, knock-down alone (DMSO): higher = more viable cells; synergy score with BYL719 and synergy score with cetuximab and synergy score with trametinib: higher = stronger synergy with drug (synthetic lethal)
Call rule: 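a gene is called essential if its knock-down-alone viability z-score drops under -3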
Calls: active = essential (knock-down alone); inactive = no change

gene | viability robust z-score, knock-down alone | viability, knock-down alone (DMSO) (fraction of control) | synergy score with BYL719 | synergy score with cetuximab | synergy score with trametinib
RIOK1 | -0.0667 | 0.921 | -0.205 | -0.146 | -0.0895
TRPM7 | 0.789 | 1 | -0.141 | 0.0472 | -0.11
MAP3K6 | -0.112 | 0.917 | -0.151 | -0.0942 | 0.0157
CDADC1 | -2.72 | 0.676 | -0.114 | -0.08 | 0.0215
STK33 | -0.556 | 0.876 | -0.106 | -0.163 | -0.0691
PIM1 | -0.437 | 0.887 | -0.106 | -0.00737 | 0.14
SHPK | -0.828 | 0.851 | -0.228 | -0.171 | -0.117
LMTK2 | -0.0633 | 0.921 | -0.0861 | -0.00936 | -0.123
EPHA1 | -0.897 | 0.844 | -0.174 | -0.112 | 0.023
ZAP70 | -0.406 | 0.89 | -0.0787 | -0.0325 | 0.0554
PSKH1 | 0.789 | 1 | -0.183 | -0.035 | -0.208
IPMK | 0.789 | 1 | -0.205 | -0.073 | -0.14
MYLK3 | -0.236 | 0.905 | -0.0428 | -0.0377 | -0.129
PFKFB2 | -0.681 | 0.864 | -0.0566 | -0.127 | -0.0658
MYLK2 | -2.46 | 0.7 | -0.142 | -0.218 | -0.0851
DDR1 | -0.748 | 0.858 | -0.127 | -0.122 | -0.0346
MSR1 | -1.07 | 0.828 | -0.208 | -0.14 | -0.133
PTK2B | 0.643 | 0.987 | -0.12 | -0.00474 | 0.0167
KSR1 | -2.6 | 0.687 | -0.0261 | -0.0695 | 0.11
PRKACB | 0.789 | 1 | -0.118 | -0.073 | -0.0698
DAPK1 | 0.789 | 1 | -0.11 | -0.0257 | -0.167
PTK7 | -2.04 | 0.738 | -0.0549 | -0.00616 | -0.0577
MAPK14 | 0.628 | 0.985 | -0.0589 | -0.0868 | -0.0168
NEK5 | 0.546 | 0.978 | -0.224 | -0.0334 | -0.149
MAP3K12 | 0.789 | 1 | -0.0936 | -0.0502 | -0.177
CLK2 | 0.293 | 0.954 | -0.196 | -0.115 | -0.149
NEK6 | 0.789 | 1 | -0.0721 | -0.073 | -0.215
SPHK1 | 0.655 | 0.988 | 0.0392 | -0.0265 | 0.0391
STK36 | -0.306 | 0.899 | -0.191 | -0.0828 | -0.122
PKMYT1 | 0.789 | 1 | -0.112 | -0.038 | -0.106
IP6K3 | 0.269 | 0.952 | 0.0567 | 0.0326 | 0.0739
CDKN2C | 0.789 | 1 | -0.113 | -0.073 | 0.0492
ADCK1 | 0.789 | 1 | 0.0278 | -0.073 | -0.0371
EPHA10 | -1.68 | 0.772 | -0.181 | -0.144 | -0.0631
MAPK9 | 0.789 | 1 | -0.206 | -0.073 | -0.148
PIK3CD | 0.0388 | 0.931 | -0.0855 | -0.0133 | -0.151
SCYL1 | 0.789 | 1 | -0.206 | -0.073 | -0.177
MTOR | -0.551 | 0.876 | -0.194 | -0.0272 | -0.0389
HSPB8 | -0.641 | 0.868 | -0.0829 | 0.0116 | 0.0581
TLK1 | -0.129 | 0.915 | -0.0743 | -0.0289 | 0.0232
CDK1 | 0.751 | 0.997 | -0.14 | -0.0763 | -0.166
DCLK3 | 0.789 | 1 | -0.127 | -0.00699 | -0.158
PRKCE | -0.467 | 0.884 | -0.0688 | 0.0292 | -0.00504
INSR | 0.417 | 0.966 | -0.215 | -0.105 | -0.171
NTRK2 | 0.789 | 1 | -0.0332 | -0.0412 | -0.165
COMMD3 | 0.413 | 0.965 | -0.0829 | -0.0367 | 0.0537
CSNK1A1 | 0.111 | 0.937 | -0.0581 | -0.0587 | 0.0117
TRPM6 | 0.789 | 1 | -0.148 | -0.073 | -0.22
PLK1 | -2.97 | 0.653 | 0.0485 | 0.0884 | -0.114
CDKN1A | 0.789 | 1 | -0.156 | -0.073 | -0.11
